{
  "source": "the supplement of paper PMC8728848",
  "experiment_in_all_cases": "glycan array binding signal (z-score within array); higher = stronger binding",
  "settings_in_all_cases": "glycan notation: IUPAC condensed, linker removed",
  "key": {"[1]": {"biological_target": "Gal(a1-3)GalNAc", "how_it_was_run": "(§1)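 Glycan array data were curated from 3228 arrays in the Consortium for Functional Glycomics database and kept only where the protein sequence was available. Glycan names were converted to IUPAC-condensed notation, and columns mapping to the same glycan were averaged. The binding signal is a within-array Z-score, averaged across arrays of the same protein sequence at different concentrations or buffers and across linkers. Negative Z-scores can be read as non-binding.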"}, "[2]": {"biological_target": "Gal(a1-3)[Gal(a1-4)]Gal(b1-4)GlcNAc", "how_it_was_run": "as §1"}, "[3]": {"biological_target": "Gal(a1-4)Gal(b1-3)GlcNAc(b1-2)Man(a1-3)[Gal(a1-4)Gal(b1-3)GlcNAc(b1-2)Man(a1-6)]Man(b1-4)GlcNAc(b1-4)GlcNAc", "how_it_was_run": "as §1"}, "[4]": {"biological_target": "Gal(a1-4)Gal(b1-4)Glc", "how_it_was_run": "as §1"}, "[5]": {"biological_target": "Gal(a1-4)Gal(b1-4)GlcNAc", "how_it_was_run": "as §1"}, "[6]": {"biological_target": "Gal(a1-4)Gal(b1-4)GlcNAc(b1-2)Man(a1-3)[Gal(a1-4)Gal(b1-4)GlcNAc(b1-2)Man(a1-6)]Man(b1-4)GlcNAc(b1-4)GlcNAc", "how_it_was_run": "as §1"}, "[7]": {"biological_target": "Gal(a1-4)Gal(b1-4)GlcNAc(b1-3)Gal(b1-4)Glc", "how_it_was_run": "as §1"}, "[8]": {"biological_target": "Gal(a1-4)GlcNAc", "how_it_was_run": "as §1"}, "[9]": {"biological_target": "Gal(a1-6)Glc", "how_it_was_run": "as §1"}, "[10]": {"biological_target": "Gal(b1-2)Gal", "how_it_was_run": "as §1"}, "[11]": {"biological_target": "Gal(b1-3)Gal", "how_it_was_run": "as §1"}, "[12]": {"biological_target": "Gal(b1-3)Gal(b1-4)GlcNAc", "how_it_was_run": "as §1"}, "[13]": {"biological_target": "Gal(b1-3)GalNAc", "how_it_was_run": "as §1"}, "[14]": {"biological_target": "Gal(b1-3)GalNAc(a1-3)[Fuc(a1-2)]Gal(b1-4)Glc", "how_it_was_run": "as §1"}, "[15]": {"biological_target": "Gal(b1-3)GalNAc(a1-3)[Fuc(a1-2)]Gal(b1-4)GlcNAc", "how_it_was_run": "as §1"}, "[16]": {"biological_target": "Gal(b1-3)GalNAc(b1-3)Gal", "how_it_was_run": "as §1"}, "[17]": {"biological_target": "Gal(b1-3)GalNAc(b1-3)Gal(a1-4)Gal(b1-4)Glc", "how_it_was_run": "as §1"}, "[18]": {"biological_target": "Gal(b1-3)GalNAc(b1-4)Gal(b1-4)Glc", "how_it_was_run": "as §1"}, "[19]": {"biological_target": "Gal(b1-3)GalNAc(b1-4)[Neu5Ac(a2-3)]Gal(b1-4)Glc", "how_it_was_run": "as §1"}, "[20]": {"biological_target": "Gal(b1-3)GlcNAc", "how_it_was_run": "as §1"}, "[21]": {"biological_target": "Gal(b1-3)GlcNAc(a1-3)Gal(b1-4)GlcNAc", "how_it_was_run": "as §1"}, "[22]": {"biological_target": "Gal(b1-3)GlcNAc(a1-6)Gal(b1-4)GlcNAc", "how_it_was_run": "as §1"}, "[23]": {"biological_target": "Gal(b1-3)GlcNAc(b1-2)Man", "how_it_was_run": "as §1"}, "[24]": {"biological_target": "Gal(b1-3)GlcNAc(b1-2)Man(a1-3)[Gal(b1-3)GlcNAc(b1-2)Man(a1-6)]Man(b1-4)GlcNAc(b1-4)GlcNAc", "how_it_was_run": "as §1"}, "[25]": {"biological_target": "Gal(b1-3)GlcNAc(b1-2)Man(a1-3)[Gal(b1-3)GlcNAc(b1-2)Man(a1-6)]Man(b1-4)GlcNAc(b1-4)[Fuc(a1-6)]GlcNAc", "how_it_was_run": "as §1"}, "[26]": {"biological_target": "Gal(b1-3)GlcNAc(b1-2)Man(a1-3)[GlcNAc(b1-4)][Gal(b1-3)GlcNAc(b1-2)Man(a1-6)]Man(b1-4)GlcNAc(b1-4)GlcNAc", "how_it_was_run": "as §1"}, "[27]": {"biological_target": "Gal(b1-3)GlcNAc(b1-2)[Gal(b1-3)GlcNAc(b1-6)]Man(a1-6)[Gal(b1-3)GlcNAc(b1-2)Man(a1-3)]Man(b1-4)GlcNAc(b1-4)GlcNAc", "how_it_was_run": "as §1"}, "[28]": {"biological_target": "Gal(b1-3)GlcNAc(b1-3)Gal(b1-3)GlcNAc", "how_it_was_run": "as §1"}, "[29]": {"biological_target": "Gal(b1-3)GlcNAc(b1-3)Gal(b1-4)Glc", "how_it_was_run": "as §1"}, "[30]": {"biological_target": "Gal(b1-3)GlcNAc(b1-3)Gal(b1-4)GlcNAc", "how_it_was_run": "as §1"}, "[31]": {"biological_target": "Gal(b1-3)GlcNAc(b1-3)Gal(b1-4)GlcNAc(b1-2)Man(a1-3)[Gal(b1-3)GlcNAc(b1-3)Gal(b1-4)GlcNAc(b1-2)Man(a1-6)]Man(b1-4)GlcNAc(b1-4)GlcNAc", "how_it_was_run": "as §1"}, "[32]": {"biological_target": "Gal(b1-3)GlcNAc(b1-3)Gal(b1-4)GlcNAc(b1-2)[Gal(b1-3)GlcNAc(b1-3)Gal(b1-4)GlcNAc(b1-6)]Man(a1-6)[Gal(b1-3)GlcNAc(b1-3)Gal(b1-4)GlcNAc(b1-2)Man(a1-3)]Man(b1-4)GlcNAc(b1-4)[Fuc(a1-6)]GlcNAc", "how_it_was_run": "as §1"}, "[33]": {"biological_target": "Gal(b1-3)GlcNAc(b1-3)Gal(b1-4)GlcNAc(b1-3)Gal(b1-4)GlcNAc(b1-2)[Gal(b1-3)GlcNAc(b1-3)Gal(b1-4)GlcNAc(b1-3)Gal(b1-4)GlcNAc(b1-6)]Man(a1-6)[Gal(b1-3)GlcNAc(b1-3)Gal(b1-4)GlcNAc(b1-3)Gal(b1-4)GlcNAc(b1-2)Man(a1-3)]Man(b1-4)GlcNAc(b1-4)[Fuc(a1-6)]GlcNAc", "how_it_was_run": "as §1"}, "[34]": {"biological_target": "Gal(b1-3)GlcNAc(b1-3)Gal(b1-4)GlcNAc(b1-6)[Gal(b1-3)GlcNAc(b1-3)]Gal(b1-4)Glc", "how_it_was_run": "as §1"}, "[35]": {"biological_target": "Gal(b1-3)GlcNAc(b1-3)Gal(b1-4)[Fuc(a1-3)]GlcNAc", "how_it_was_run": "as §1"}, "[36]": {"biological_target": "Gal(b1-3)GlcNAc(b1-3)Gal(b1-4)[Fuc(a1-3)]GlcNAc(b1-6)[Gal(b1-3)GlcNAc(b1-3)]Gal(b1-4)Glc", "how_it_was_run": "as §1"}, "[37]": {"biological_target": "Gal(b1-3)GlcNAc(b1-3)GalNAc", "how_it_was_run": "as §1"}, "[38]": {"biological_target": "Gal(b1-3)GlcNAc(b1-6)Gal(b1-4)GlcNAc", "how_it_was_run": "as §1"}},
  "note": "Some of the results follow.",
  "data": [
    {"binder": "Epa19 (Candida glabrata) (protein) MGSSHHHHHHSSGLVPRGSHMASSKDPTRFPIGCSPQVLKTQPGLAVKLYSYGHPVPGCSYITYQYPDFPRSGYKKERKLADITGVNGKIDIDLKPNDPCRVLTGHLPSNYNYPDTLTYTNFTMILYGYFQPKVTGYHTFNLEADDLLFMNLGAGNAFDCCKAESTLDNFGNYQSYSLWGSDYAKANITVFLVSGVYYPIRLFYVNRDNNAVIDFSFTTEFDKEKVHDFTSYFFSASDGEQCPGSV", "values": [
      {"measurement": "glycan array binding signal (z-score)", "setting": "[1]", "value": 0.456},
      {"measurement": "glycan array binding signal (z-score)", "setting": "[2]", "value": -0.339},
      {"measurement": "glycan array binding signal (z-score)", "setting": "[3]", "value": -0.21},
      {"measurement": "glycan array binding signal (z-score)", "setting": "[4]", "value": 0.975},
      {"measurement": "glycan array binding signal (z-score)", "setting": "[5]", "value": 0.377},
      {"measurement": "glycan array binding signal (z-score)", "setting": "[6]", "value": -0.109},
      {"measurement": "glycan array binding signal (z-score)", "setting": "[7]", "value": -0.345},
      {"measurement": "glycan array binding signal (z-score)", "setting": "[8]", "value": 0.392},
      {"measurement": "glycan array binding signal (z-score)", "setting": "[9]", "value": -0.012},
      {"measurement": "glycan array binding signal (z-score)", "setting": "[10]", "value": -0.099},
      {"measurement": "glycan array binding signal (z-score)", "setting": "[11]", "value": 0.032},
      {"measurement": "glycan array binding signal (z-score)", "setting": "[12]", "value": -0.035},
      {"measurement": "glycan array binding signal (z-score)", "setting": "[13]", "value": -0.306},
      {"measurement": "glycan array binding signal (z-score)", "setting": "[14]", "value": 0.405},
      {"measurement": "glycan array binding signal (z-score)", "setting": "[15]", "value": -0.54},
      {"measurement": "glycan array binding signal (z-score)", "setting": "[16]", "value": -0.043},
      {"measurement": "glycan array binding signal (z-score)", "setting": "[17]", "value": 0.604},
      {"measurement": "glycan array binding signal (z-score)", "setting": "[18]", "value": 0.316},
      {"measurement": "glycan array binding signal (z-score)", "setting": "[19]", "value": -0.041},
      {"measurement": "glycan array binding signal (z-score)", "setting": "[20]", "value": -0.342},
      {"measurement": "glycan array binding signal (z-score)", "setting": "[21]", "value": 0.488},
      {"measurement": "glycan array binding signal (z-score)", "setting": "[22]", "value": -0.414},
      {"measurement": "glycan array binding signal (z-score)", "setting": "[23]", "value": 0.566},
      {"measurement": "glycan array binding signal (z-score)", "setting": "[24]", "value": -0.15},
      {"measurement": "glycan array binding signal (z-score)", "setting": "[25]", "value": -0.254},
      {"measurement": "glycan array binding signal (z-score)", "setting": "[26]", "value": -0.063},
      {"measurement": "glycan array binding signal (z-score)", "setting": "[27]", "value": 0.35},
      {"measurement": "glycan array binding signal (z-score)", "setting": "[28]", "value": 0.436},
      {"measurement": "glycan array binding signal (z-score)", "setting": "[29]", "value": -0.323},
      {"measurement": "glycan array binding signal (z-score)", "setting": "[30]", "value": -0.724},
      {"measurement": "glycan array binding signal (z-score)", "setting": "[31]", "value": 0.847},
      {"measurement": "glycan array binding signal (z-score)", "setting": "[32]", "value": 0.881},
      {"measurement": "glycan array binding signal (z-score)", "setting": "[33]", "value": 0.249},
      {"measurement": "glycan array binding signal (z-score)", "setting": "[34]", "value": 0.06},
      {"measurement": "glycan array binding signal (z-score)", "setting": "[35]", "value": 0.997},
      {"measurement": "glycan array binding signal (z-score)", "setting": "[36]", "value": -0.418},
      {"measurement": "glycan array binding signal (z-score)", "setting": "[37]", "value": -0.204},
      {"measurement": "glycan array binding signal (z-score)", "setting": "[38]", "value": -0.034}
    ]}
  ]
}
